# Data: patent US5439884A, “Method of controlling fertilization using bombesin or its agonist” (Oregon Regional Primate Research Center, priority 1992, dated 1995)
# At least one peptide structure holds a part that was inferred or is arguable (an end, a ring closure or a residue). Where a SMILES comes first, the peptide text is derived from it. [ ]: non-standard residue; d: D form. The star is where a group is joined. Propionyl = CCC(=O)*
# Test system: sperm
# Assay: acrosome reaction, analogs alone or in the presence of GRP (sperm species not stated)
# Assay type: cell-based
# Description: The acrosome reaction, which is necessary for sperm to fertilize the egg, was induced by the following methods.
# For monkeys, sperm was collected, washed twice in balanced salts, resuspended in lactate/bicarbonate and dibutyryl cAMP, and then incubated for 60 minutes. […] See Wolf, D. P. et al. Mol. Reprod. Dev. 27:261-280 (1990); Lanzendorf, S. E. et al. Mol. Reprod. Dev. 25:61-66 (1990); and Wolf D. P. et al. Biol. Reprod. 41:335-346 (1989). All of these three publications are hereby incorporated by reference.
# To measure the effects of bombesin on the acrosome reaction, capacitation was conducted in the presence or absence of bombesin. After incubation, samples of sperm were removed to determine the percentage of sperm which had undergone the acrosome reaction as measured with an acrosome specific monoclonal antibody and FITC fluorescence [see Wolf, D. P. Am. J. Reprod. Immunol. 20:106-113 (1989), which is hereby incorporated by reference].
# […] bombesin analogs, BIM 26136, BIM 26187, BIM 26189, BIM 26224, BIM 26226, BIM 26244, and BIM 26028, were used to test their effect on the acrosome reaction, either alone or in the presence GRP, in a manner described above.
structure (smiles),measurement,setting,value
"CCC(=O)N[C@@H](Cc1c[nH]cn1)C(=O)N[C@@H](Cc1c[nH]c2ccccc12)C(=O)N[C@@H](C)C(=O)N[C@H](C(=O)N[C@H](C)C(=O)N[C@@H](Cc1c[nH]cn1)C(=O)N[C@@H](CC(C)C)C(=O)OC)C(C)C [BIM 26244, H-Propionyl-His-Trp-Ala-Val-D-Ala-His-Leu-OCH3] (Propionyl-HWAV[dA]HL-OMe)","% Acrosome Reacted, Analog + GRP",analog 50 nM + GRP 2 nM,11.000 ± .677%
same,"% Acrosome Reacted, Analog","analog alone, final concentration 50 nM, blank control 6.000 ± .707",5.000 ± .707%
